No constants are given. Whether binding was seen depends on the method and setting. Some binding calls cover weakened binding; strength is not graded here. For some assays here: Tags and fused reporters may be left off the sequences shown.
Columns and labels:
[1] = target: USP5 (recombinant) (UniProt P45974); assay: covalent labelling by an activity-based probe (SDS-PAGE); labelling of USP5 by hISG15FL- and mISG15CTD-based probes (Supplementary Fig. 1B); conditions not shown
[2] = target: recombinant human USP16 (human) (UniProt Q9Y5T5); assay: covalent labelling by an activity-based probe (SDS-PAGE); equimolar mixture of recombinant human USP18 and USP16 with Ac-mISG15CTD-PA probes (Supplementary Fig. 20); both purified
[3] = target: T1, USP18^WT-FLAG (UniProt Q9UMW8); assay: covalent labelling by an activity-based probe (SDS-PAGE); only the binder purified
T1 sequence: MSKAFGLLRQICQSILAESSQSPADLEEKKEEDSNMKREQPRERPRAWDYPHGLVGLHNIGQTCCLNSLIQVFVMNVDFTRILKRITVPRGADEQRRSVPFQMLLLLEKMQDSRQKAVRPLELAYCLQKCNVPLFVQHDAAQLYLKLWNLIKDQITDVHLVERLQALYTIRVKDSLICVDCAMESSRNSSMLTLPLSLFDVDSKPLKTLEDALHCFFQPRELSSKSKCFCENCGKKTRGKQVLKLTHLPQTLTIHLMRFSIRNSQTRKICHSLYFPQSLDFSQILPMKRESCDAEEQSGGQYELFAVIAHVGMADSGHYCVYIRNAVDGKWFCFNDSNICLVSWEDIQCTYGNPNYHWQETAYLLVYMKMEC

Chains of the proteins cited; added tags and fusions are not shown.
UniProt P45974: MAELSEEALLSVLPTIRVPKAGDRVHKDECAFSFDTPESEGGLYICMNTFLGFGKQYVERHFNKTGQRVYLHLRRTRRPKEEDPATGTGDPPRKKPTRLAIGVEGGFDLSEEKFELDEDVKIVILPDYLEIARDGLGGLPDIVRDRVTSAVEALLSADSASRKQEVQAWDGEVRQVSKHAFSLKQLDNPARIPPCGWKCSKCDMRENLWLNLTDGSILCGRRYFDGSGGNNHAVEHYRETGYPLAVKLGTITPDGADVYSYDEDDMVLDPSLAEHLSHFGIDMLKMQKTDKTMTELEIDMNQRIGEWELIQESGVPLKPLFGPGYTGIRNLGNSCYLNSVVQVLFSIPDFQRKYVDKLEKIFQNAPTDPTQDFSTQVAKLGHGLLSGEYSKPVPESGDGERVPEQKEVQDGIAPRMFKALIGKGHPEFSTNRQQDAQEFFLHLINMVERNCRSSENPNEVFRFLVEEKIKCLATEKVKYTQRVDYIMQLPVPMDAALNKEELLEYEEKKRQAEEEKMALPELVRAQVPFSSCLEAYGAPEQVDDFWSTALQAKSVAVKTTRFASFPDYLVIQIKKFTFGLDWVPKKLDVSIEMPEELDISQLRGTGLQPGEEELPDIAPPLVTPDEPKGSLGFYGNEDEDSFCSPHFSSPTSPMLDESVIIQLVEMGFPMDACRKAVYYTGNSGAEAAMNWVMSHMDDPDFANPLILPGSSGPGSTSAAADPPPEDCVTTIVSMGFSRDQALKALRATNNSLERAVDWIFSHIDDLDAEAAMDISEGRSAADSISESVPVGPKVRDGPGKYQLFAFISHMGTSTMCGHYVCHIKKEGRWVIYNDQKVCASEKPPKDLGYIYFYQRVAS
UniProt Q9Y5T5: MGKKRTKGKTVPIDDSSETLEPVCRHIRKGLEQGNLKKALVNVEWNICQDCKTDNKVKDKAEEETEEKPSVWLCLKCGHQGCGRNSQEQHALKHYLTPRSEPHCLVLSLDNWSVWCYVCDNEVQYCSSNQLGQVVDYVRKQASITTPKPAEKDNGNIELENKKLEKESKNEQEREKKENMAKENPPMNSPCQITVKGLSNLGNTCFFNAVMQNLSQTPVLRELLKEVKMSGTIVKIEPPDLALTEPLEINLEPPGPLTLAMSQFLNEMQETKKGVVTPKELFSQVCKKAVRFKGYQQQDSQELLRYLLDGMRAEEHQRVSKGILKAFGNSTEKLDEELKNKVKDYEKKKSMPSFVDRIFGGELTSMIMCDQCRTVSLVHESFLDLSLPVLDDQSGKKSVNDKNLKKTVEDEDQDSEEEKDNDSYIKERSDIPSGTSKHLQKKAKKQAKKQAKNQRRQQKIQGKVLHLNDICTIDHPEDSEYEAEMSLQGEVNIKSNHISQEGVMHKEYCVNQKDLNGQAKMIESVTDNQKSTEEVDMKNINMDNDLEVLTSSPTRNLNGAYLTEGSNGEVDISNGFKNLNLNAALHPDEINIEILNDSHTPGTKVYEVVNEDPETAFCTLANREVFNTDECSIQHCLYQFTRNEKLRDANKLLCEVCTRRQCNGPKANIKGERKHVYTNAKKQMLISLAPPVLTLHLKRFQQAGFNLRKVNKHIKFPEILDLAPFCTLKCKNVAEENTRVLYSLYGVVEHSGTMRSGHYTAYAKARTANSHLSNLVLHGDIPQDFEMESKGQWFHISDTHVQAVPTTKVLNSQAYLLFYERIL

[4] = target: recombinant human USP16 (human) (UniProt Q9Y5T5); assay: covalent labelling by an activity-based probe (SDS-PAGE); recombinant USP18 (2 μM), USP5 (1 μM) or USP16 (0.45 μM) with Ac-Ubl-PA probes (10 μM), 3 h, room temperature; higher band on SDS-PAGE, SYPRO Ruby staining; both purified
[5] = target: USP5 (recombinant) (UniProt P45974); assay: as above

Measured: binding

B1: Ac-mISG15CTD[WT]-PA (domain or fragment)
chain: LSILVRNERGHSNIYEVFLTQTVDTLKKKVSQREQVHEDQFWLSFEGRPMEDKELLGEYGLKPQSTVIKHLRLRG
modifications: N-terminal acetyl; C-terminal propargylamine (PA) warhead replacing Gly155
binds: all assays above

Source: article PMC11754618
